Results are given in words; binding and its absence hold for the method and conditions named. Binding seen in cells or lysates may run through a third protein. A yes stands for co-enrichment or nearness to the bait. Other partners may have been found. Blank lines part the entries; values can stand above or below the molecule they belong to.
Tests used:
[1] = target: GFP-tagged SNRPD2 (Hs578T BAC GFP-reporter) (human) (UniProt P62316); test: affinity purification with mass spectrometry; GFP-Trap A beads on lysates of Hs578T BAC GFP-reporter lines (EBC buffer, 150 mM NaCl, 0.5% NP-40, sonicated, benzonase 1 h 4 °C); on-bead trypsin digestion, mass spectrometry
[2] = target: GFP-tagged SNRPD3 (Hs578T BAC GFP-reporter) (human) (UniProt P62318); test: as above

By UniProt entry, the sequences of proteins in these tests, tags left out.
UniProt P62316: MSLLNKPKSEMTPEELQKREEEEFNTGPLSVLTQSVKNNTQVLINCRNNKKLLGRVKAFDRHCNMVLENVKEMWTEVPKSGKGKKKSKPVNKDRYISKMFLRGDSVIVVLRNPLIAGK
UniProt P62318: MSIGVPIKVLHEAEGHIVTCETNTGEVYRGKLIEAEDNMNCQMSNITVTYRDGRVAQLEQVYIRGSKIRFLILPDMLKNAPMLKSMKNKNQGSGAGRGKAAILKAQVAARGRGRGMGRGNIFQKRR
UniProt O75533: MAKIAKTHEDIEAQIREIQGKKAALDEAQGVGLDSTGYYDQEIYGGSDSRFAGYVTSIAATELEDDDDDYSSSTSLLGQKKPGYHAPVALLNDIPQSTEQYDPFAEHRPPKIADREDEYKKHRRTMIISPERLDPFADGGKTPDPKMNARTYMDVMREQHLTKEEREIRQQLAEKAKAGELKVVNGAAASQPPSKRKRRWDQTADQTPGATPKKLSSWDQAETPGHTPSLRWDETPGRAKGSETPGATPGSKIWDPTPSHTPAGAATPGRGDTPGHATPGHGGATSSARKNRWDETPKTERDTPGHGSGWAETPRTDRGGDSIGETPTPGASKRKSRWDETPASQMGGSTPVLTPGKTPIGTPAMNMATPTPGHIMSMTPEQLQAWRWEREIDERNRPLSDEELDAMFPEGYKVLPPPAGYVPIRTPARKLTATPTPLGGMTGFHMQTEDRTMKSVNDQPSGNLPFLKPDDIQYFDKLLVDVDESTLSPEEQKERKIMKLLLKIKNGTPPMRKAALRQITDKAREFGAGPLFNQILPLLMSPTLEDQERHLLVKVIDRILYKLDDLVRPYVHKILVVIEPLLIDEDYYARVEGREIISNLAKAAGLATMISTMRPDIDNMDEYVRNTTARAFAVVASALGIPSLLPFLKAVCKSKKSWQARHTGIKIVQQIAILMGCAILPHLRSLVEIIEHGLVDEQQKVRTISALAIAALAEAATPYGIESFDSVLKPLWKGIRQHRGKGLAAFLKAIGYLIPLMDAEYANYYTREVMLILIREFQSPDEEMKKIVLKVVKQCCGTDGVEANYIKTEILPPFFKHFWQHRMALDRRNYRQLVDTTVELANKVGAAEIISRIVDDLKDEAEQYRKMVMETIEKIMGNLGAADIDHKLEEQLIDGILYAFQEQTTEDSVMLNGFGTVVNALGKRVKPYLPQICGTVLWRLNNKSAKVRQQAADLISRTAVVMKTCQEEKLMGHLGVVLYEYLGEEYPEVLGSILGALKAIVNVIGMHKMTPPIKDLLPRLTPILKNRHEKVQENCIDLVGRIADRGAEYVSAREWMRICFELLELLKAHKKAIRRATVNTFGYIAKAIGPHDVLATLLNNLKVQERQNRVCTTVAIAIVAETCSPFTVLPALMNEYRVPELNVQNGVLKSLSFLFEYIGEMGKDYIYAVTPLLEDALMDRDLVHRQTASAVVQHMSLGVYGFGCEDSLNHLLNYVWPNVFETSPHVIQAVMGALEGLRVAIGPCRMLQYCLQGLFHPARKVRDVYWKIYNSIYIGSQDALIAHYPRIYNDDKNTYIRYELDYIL

- binding [1]: binds
- binding [2]: binds
B1: CRNKL1 (protein, UniProt Q9BZJ0 1-848)
chain: MTATVENLTFQKDTLGNAVDKNTSRLELRSYSLAGRHGSTEPLVLAWSSQFRRLTWGCALDALHRSPCVAASQHGVTHLIRSSRTPHSTRCRKEDAQPGHHGNGAASVTAQARGQRSVLQVPLPVPRSCLFSESFVVSVSSQSRFLASVPGTGVQRSTAADMAASTAAGKQRIPKVAKVKNKAPAEVQITAEQLLREAKERELELLPPPPQQKITDEEELNDYKLRKRKTFEDNIRKNRTVISNWIKYAQWEESLKEIQRARSIYERALDVDYRNITLWLKYAEMEMKNRQVNHARNIWDRAITTLPRVNQFWYKYTYMEEMLGNVAGARQVFERWMEWQPEEQAWHSYINFELRYKEVDRARTIYERFVLVHPDVKNWIKYARFEEKHAYFAHARKVYERAVEFFGDEHMDEHLYVAFAKFEENQKEFERVRVIYKYALDRISKQDAQELFKNYTIFEKKFGDRRGIEDIIVSKRRFQYEEEVKANPHNYDAWFDYLRLVESDAEAEAVREVYERAIANVPPIQEKRHWKRYIYLWINYALYEELEAKDPERTRQVYQASLELIPHKKFTFAKMWILYAQFEIRQKNLSLARRALGTSIGKCPKNKLFKVYIELELQLREFDRCRKLYEKFLEFGPENCTSWIKFAELETILGDIDRARAIYELAISQPRLDMPEVLWKSYIDFEIEQEETERTRNLYRRLLQRTQHVKVWISFAQFELSSGKEGSLTKCRQIYEEANKTMRNCEEKEERLMLLESWRSFEEEFGTASDKERVDKLMPEKVKKRRKVQTDDGSDAGWEEYFDYIFPEDAANQPNLKLLAMAKLWKKQQQEKEDAEHHPDEDVDESES

- binding [1]: binds
- binding [2]: binds
B3: CACTIN (protein, UniProt Q8WUQ7 1-758)
chain: MGRDTRSRSRSAGRRGRRRQSQSGSRSRSRSHGRRNRRRREDEGRRRRRRRSRERRSDSEEERWQRSGMRSRSPPRPKWHSRDGSSQSDSGEEQSRGQWARRRRRARSWSPSSSASSSASPGRSQSPRAAAAALSQQQSLQERLRLREERKQQEELMKAFETPEEKRARRLAKKEAKERKKREKMGWGEEYMGYTNTDNPFGDNNLLGTFIWNKALEKKGISHLEEKELKERNKRIQEDNRLELQKVKQLRLEREREKAMREQELEMLQREKEAEHFKTWEEQEDNFHLQQAKLRSKIRIRDGRAKPIDLLAKYISAEDDDLAVEMHEPYTFLNGLTVADMEDLLEDIQVYMELEQGKNADFWRDMTTITEDEISKLRKLEASGKGPGERREGVNASVSSDVQSVFKGKTYNQLQVIFQGIEGKIRAGGPNLDMGYWESLLQQLRAHMARARLRERHQDVLRQKLYKLKQEQGVESEPLFPILKQEPQSPSRSLEPEDAAPTPPGPSSEGGPAEAEVDGATPTEGDGDGDGEGEGEGEAVLMEEDLIQQSLDDYDAGRYSPRLLTAHELPLDAHVLEPDEDLQRLQLSRQQLQVTGDASESAEDIFFRRAKEGMGQDEAQFSVEMPLTGKAYLWADKYRPRKPRFFNRVHTGFEWNKYNQTHYDFDNPPPKIVQGYKFNIFYPDLIDKRSTPEYFLEACADNKDFAILRFHAGPPYEDIAFKIVNREWEYSHRHGFRCQFANGIFQLWFHFKRYRYRR

- binding [1]: binds
- binding [2]: binds
B4: BUD31 (protein, UniProt P41223 1-144)
chain: MPKVKRSRKAPPDGWELIEPTLDELDQKMREAETEPHEGKRKVESLWPIFRIHHQKTRYIFDLFYKRKAISRELYEYCIKEGYADKNLIAKWKKQGYENLCCLRCIQTRDTNFGTNCICRVPKSKLEVGRIIECTHCGCRGCSG

- binding [1]: binds
- binding [2]: binds
B5: AQR (protein, UniProt O60306 1-1485)
chain: MAAPAQPKKIVAPTVSQINAEFVTQLACKYWAPHIKKKSPFDIKVIEDIYEKEIVKSRFAIRKIMLLEFSQYLENYLWMNYSPEVSSKAYLMSICCMVNEKFRENVPAWEIFKKKPDHFPFFFKHILKAALAETDGEFSLHEQTVLLLFLDHCFNSLEVDLIRSQVQQLISLPMWMGLQLARLELELKKTPKLRKFWNLIKKNDEKMDPEAREQAYQERRFLSQLIQKFISVLKSVPLSEPVTMDKVHYCERFIELMIDLEALLPTRRWFNTILDDSHLLVHCYLSNLVRREEDGHLFSQLLDMLKFYTGFEINDQTGNALTENEMTTIHYDRITSLQRAAFAHFPELYDFALSNVAEVDTRESLVKFFGPLSSNTLHQVASYLCLLPTLPKNEDTTFDKEFLLELLVSRHERRISQIQQLNQMPLYPTEKIIWDENIVPTEYYSGEGCLALPKLNLQFLTLHDYLLRNFNLFRLESTYEIRQDIEDSVSRMKPWQSEYGGVVFGGWARMAQPIVAFTVVEVAKPNIGENWPTRVRADVTINLNVRDHIKDEWEGLRKHDVCFLITVRPTKPYGTKFDRRRPFIEQVGLVYVRGCEIQGMLDDKGRVIEDGPEPRPNLRGESRTFRVFLDPNQYQQDMTNTIQNGAEDVYETFNIIMRRKPKENNFKAVLETIRNLMNTDCVVPDWLHDIILGYGDPSSAHYSKMPNQIATLDFNDTFLSIEHLKASFPGHNVKVTVEDPALQIPPFRITFPVRSGKGKKRKDADVEDEDTEEAKTLIVEPHVIPNRGPYPYNQPKRNTIQFTHTQIEAIRAGMQPGLTMVVGPPGTGKTDVAVQIISNIYHNFPEQRTLIVTHSNQALNQLFEKIMALDIDERHLLRLGHGEEELETEKDFSRYGRVNYVLARRIELLEEVKRLQKSLGVPGDASYTCETAGYFFLYQVMSRWEEYISKVKNKGSTLPDVTEVSTFFPFHEYFANAPQPIFKGRSYEEDMEIAEGCFRHIKKIFTQLEEFRASELLRSGLDRSKYLLVKEAKIIAMTCTHAALKRHDLVKLGFKYDNILMEEAAQILEIETFIPLLLQNPQDGFSRLKRWIMIGDHHQLPPVIKNMAFQKYSNMEQSLFTRFVRVGVPTVDLDAQGRARASLCNLYNWRYKNLGNLPHVQLLPEFSTANAGLLYDFQLINVEDFQGVGESEPNPYFYQNLGEAEYVVALFMYMCLLGYPADKISILTTYNGQKHLIRDIINRRCGNNPLIGRPNKVTTVDRFQGQQNDYILLSLVRTRAVGHLRDVRRLVVAMSRARLGLYIFARVSLFQNCFELTPAFSQLTARPLHLHIIPTEPFPTTRKNGERPSHEVQIIKNMPQMANFVYNMYMHLIQTTHHYHQTLLQLPPAMVEEGEEVQNQETELETEEEAMTVQADIIPSPTDTSCRQETPAFQTDTTPSETGATSTPEAIPALSETTPTVVGAVSAPAEANTPQDATSAPEETK

Continued, molecule first:

Molecule: SNRPD3 (endogenous) (from UniProt P62318 1-126)
- binding [1]: binds

Molecule: SF3B1 (from UniProt O75533 1-1304)
- binding [1]: binds
- binding [2]: binds

B2: SNW1/SKIIP (protein, UniProt Q13573 1-536)
chain: MALTSFLPAPTQLSQDQLEAEEKARSQRSRQTSLVSSRREPPPYGYRKGWIPRLLEDFGDGGAFPEIHVAQYPLDMGRKKKMSNALAIQVDSEGKIKYDAIARQGQSKDKVIYSKYTDLVPKEVMNADDPDLQRPDEEAIKEITEKTRVALEKSVSQKVAAAMPVRAADKLAPAQYIRYTPSQQGVAFNSGAKQRVIRMVEMQKDPMEPPRFKINKKIPRGPPSPPAPVMHSPSRKMTVKEQQEWKIPPCISNWKNAKGYTIPLDKRLAADGRGLQTVHINENFAKLAEALYIADRKAREAVEMRAQVERKMAQKEKEKHEEKLREMAQKARERRAGIKTHVEKEDGEARERDEIRHDRRKERQHDRNLSRAAPDKRSKLQRNENRDISEVIALGVPNPRTSNEVQYDQRLFNQSKGMDSGFAGGEDEIYNVYDQAWRGGKDMAQSIYRPSKNLDKDMYGDDLEARIKTNRFVPDKEFSGSDRRQRGREGPVQFEEDPFGLDKFLEEAKQHGGSKRPSDSSRPKEHEHEGKKRRKE
- binding [1]: binds
- binding [2]: binds

Source: paper PMC7919097
